Results as given in PubChem BioAssay AID504834 (National Center for Advancing Translational Sciences (NCATS), 2011).
The whole screen tested about 320,000 compounds, of which about 22,000 (6.9%) were called active. The inconclusive results got no clear call from the source; some entries with a clear call stand among them for comparison. Calls come from the whole dose curve; as a rule, active = well fitted inhibition curve with a large enough effect; inconclusive = small, poorly fitted or top-dose-only effect, or another doubt; inactive = no such curve, though single readings can be large or run the other way. Potencies beside an inconclusive call are fits to weak or partial responses and may not hold up.

assay: Primary qHTS for delayed death inhibitors of the malarial parasite plastid, 96 hour incubation; conditions: P. falciparum luciferase reporter growth; series mostly up to 28.7 µM; activity change, negative = inhibition: at the top concentration
Outline: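 Readout is luminescence from an integrated firefly luciferase in P. falciparum. Red cells, 2% hematocrit and 0.05% parasitemia final, were cultured with compound through two parasite generations (96 hours) at 37 C, 5% CO2.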
% is set by controls: 0 for no effect and ±100 for the full control effect; potency is the fitted concentration of half-maximal effect.

Compound | Potency | activity change, negative = inhibition
Cn1c(=NC(=O)c2cnccn2)sc2ccccc21 | active: 11.7 µM | 
N#Cc1ccccc1Cn1cc(/C=N/Nc2ccc([N+](=O)[O-])cn2)c2ccccc21 | active: 5.22 µM | 
COc1ccc(C(C)=O)cc1COC(=O)c1ccc2c(c1)OCO2 | inconclusive: 14.7 µM [inhibitor, single point] | 
CCOC(=O)C1=C(C)NC(=O)NC1c1ccc(OCC(=O)OC)c(OC)c1 (configuration not stated) |  | inactive: 68.4%
COC(=O)c1ccc(C2CC(=O)NC3=C2C(=O)CCC3)cc1 (configuration not stated) | inconclusive: 18.5 µM [inhibitor, single point] | 
O=C(CCc1nnc2ccc(N3CCC4(CC3)OCCO4)nn12)Nc1cc(F)ccc1F |  | inactive: 4.38%
COc1ccccc1CNC(=O)[C@H](CCSC)NC(=O)[C@@H]1Cc2ccccc2CN1 | inconclusive: 10.4 µM [inhibitor, single point] | 
COc1cc2ccccc2cc1C(=O)N(CCN(C)C)c1nc2c(OC)ccc(OC)c2s1 | inconclusive: 1.47 µM [inhibitor, full curve, poor fit] | 
O=C(O)c1cccc(S(=O)(=O)N2CCC(n3nnc4cc(C(F)(F)F)ccc43)CC2)c1 |  | inactive: -14.4%
COc1cc(OC)c2c(-c3ccccc3)cc(=O)oc2c1C(CC(=O)N1CCOCC1)c1ccc(N(C)C)cc1 (configuration not stated) | inconclusive: 1.85 µM [inhibitor, partial curve] | 
COc1ccc(C2SCC(=O)N2c2nnc(C34CC5CC(CC(C5)C3)C4)s2)cc1 (configuration not stated) |  | inactive: 0%
CC(=NCC1CCNCC1)C1=C(O)CC(C)(C)CC1=O | inconclusive: 18.5 µM [inhibitor, single point] | 
Cc1ccc(NC2=NC(c3ccc(C)cc3)n3c(nc(C)cc3=O)N2)cc1 (configuration not stated) | active: 11.7 µM | 
O=C(NCc1ccccn1)C1CCN(S(=O)(=O)N2CCC3(CC2)OCCO3)CC1 | active: 10.4 µM | 
O=C(CN(c1ccc(Cl)cc1)S(=O)(=O)c1ccc(Cl)c([N+](=O)[O-])c1)NCCc1ccccc1 | inconclusive: 8.28 µM [inhibitor, partial curve] | 
COc1cc(CN2CCC(Cc3ccccc3)CC2)cc(OC)c1OC | active: 9.28 µM | 
CCCC1=Nc2cc(C(=O)NCCN3CCOCC3)ccc2Sc2ccccc21 | inconclusive: 2.62 µM [inhibitor, single point] | 
CO/N=C(\Cn1ncc(N2CCCC2)c(Cl)c1=O)c1ccc(Cl)cc1 | inconclusive: 11.7 µM [inhibitor, single point] | 
Cc1cc2nc(CCN(C(=S)NCC3CCCO3)C3CCCC3)[nH]c2cc1C (configuration not stated) | inconclusive: 18.5 µM [inhibitor, single point] | 
Cc1ccc(C(=O)OCC(=O)c2ccc(CC(=O)N3CCOCC3)s2)cc1C | inconclusive: 11.7 µM [inhibitor, single point] | 
CCN(CC(=O)Nc1ccc(NC(C)=O)cc1)C(=O)C(c1ccccc1)c1ccccc1 | inconclusive: 13.1 µM [inhibitor, partial curve, poor fit] | 

Molecules above with a nitro group on carbon:
Compound | Potency | activity change, negative = inhibition
N#Cc1ccccc1Cn1cc(/C=N/Nc2ccc([N+](=O)[O-])cn2)c2ccccc21 | active: 5.22 µM | 
O=C(CN(c1ccc(Cl)cc1)S(=O)(=O)c1ccc(Cl)c([N+](=O)[O-])c1)NCCc1ccccc1 | inconclusive: 8.28 µM [inhibitor, partial curve] | 

(listing goes on)

Compound | Potency | activity change, negative = inhibition
O=S(=O)(c1cccc2nsnc12)N1CCN(C/C=C\c2ccccc2)CC1 | inconclusive: 9.28 µM [inhibitor, single point] | 
C=C1CCN(Cc2ccccc2)S(=O)(=O)c2ccccc21 |  | inactive: -20.1%
COc1ccc(CC(=O)Nc2sc3c(c2C(N)=O)CCCC3)cc1 |  | inactive: -6.34%
COc1ccc(/C=C2\SC(=S)N(NC(=O)c3ccncc3)C2=O)cc1OC | inconclusive: 0.0657 µM [inhibitor, full curve, poor fit] | 
CC1SC(C)C(=O)N(CC(=O)NC2CCCCC2)C1=O (configuration not stated) |  | inactive: 19.4%
COc1ccc(OC(=O)CN2C(=O)C3C4CCC(C4)C3C2=O)cc1 (configuration not stated) | inconclusive: 18.5 µM [inhibitor, single point] | 
Cc1ccc(S(=O)(=O)NCc2cccnc2)cc1C |  | inactive: 19.8%
C#CCOCCOCCOCCNc1nc(N2CCN(C(=O)CCCCCCCCCCNC(=O)[C@H](CCCCN)n3cc(CCO)nn3)CC2)nc(N2CCN(C(=O)CCCCCCCCCCNC(=O)[C@H](CCCN=C(N)N)n3cc(C[C@@H](C)CC)nn3)CC2)n1 | active: 4.65 µM | 
Nc1nnnn1/N=C/c1cccc(O)c1 |  | inactive: 17.9%
Cc1ccc(NC(=O)c2ccc3snnc3c2)cc1C | inconclusive: 0.147 µM [inhibitor, full curve, poor fit] | 
CCOc1ccc(N(C(=O)/C=C/C(=O)Nc2cc(C)on2)C(C(=O)NC2CCCC2)c2ccccc2C)cc1 (configuration not stated) | inconclusive: 10.4 µM [inhibitor, partial curve, poor fit] | 
COc1c(F)cccc1C1=CC(=O)C[C@H](c2ccc3c(c2)OCO3)C1 | inconclusive: 4.15 µM [inhibitor, single point] | 
CCO[C@@H]1OC(C(N)=O)=C[C@H](c2ccc(C(F)(F)F)cc2)[C@H]1CCCO | inconclusive: 13.1 µM [inhibitor, partial curve, poor fit] | 
COc1ccccc1N1CCN(Cc2nc(N)nc(Nc3ccc(C)c(Cl)c3)n2)CC1 | inconclusive: 0.0928 µM [inhibitor, full curve, poor fit] | 
CC(=O)c1cc2c(cc1NC(=O)c1cc3nc(C(C)C)cc(C(F)(F)F)n3n1)OCO2 | inconclusive: 11.7 µM [inhibitor, partial curve] | 
O=C(CNC(=O)c1cccc(F)c1)N/N=C/c1ccc([N+](=O)[O-])s1 | inconclusive: 18.5 µM [inhibitor, partial curve, poor fit] | 
O=C(CCCCCN1C(=O)[C@@H]2Cc3ccccc3CN2C1=O)Nc1ccccc1F | inconclusive: 18.5 µM [inhibitor, single point] | 
Cc1ccnc(Nc2nc(-c3ccc(O)c(O)c3)cs2)c1 | inconclusive: 0.147 µM [inhibitor, partial curve, poor fit] | 
O=C(CN1CCN(C(c2ccccc2)c2ccccc2)CC1)NC(=O)NCc1ccco1 | active: 10.4 µM | 
CN(CC(=O)Nc1cc([N+](=O)[O-])ccc1Cl)Cc1ccc(Br)cc1 | inconclusive: 11.7 µM [inhibitor, single point] | 
CCOC(=O)C1(CCOC)CCN(Cc2cnc(-c3cccc(C)c3)nc2)CC1 | inconclusive: 0.0657 µM [inhibitor, partial curve, poor fit] | 
